Experimental data from patent US20150328292A1, “CASPASE POLYPEPTIDES HAVING MODIFIED ACTIVITY AND USES THEREOF” (BELLICUM PHARMACEUTICALS, INC., priority 2014, published 2015).

Test system: HEK293T/16 cells
Assay: Western blot of protein expression and proteolysis
Assay type: cell-based, human
Conditions: 72 hours post-transfection, 1 or 2 μg plasmid
Description: The lysates were collected and lysed on ice for 30 min. After pelleting cell debris, protein concentrations from overlying supernatants were measured in 96-well plates with BCA™ Protein Assay as recommended by the manufacturer. 30 μg of proteins were boiled in Laemmli sample buffer (Bio-Rad, Hercules, Calif.) with 2.5% 2-mercaptoethanol for 5 min at 95° C. before being separated by Criterion TGX 10% Tris/glylcine protein gel. Membranes were probed with 1/1000 rabbit anti-human caspase-9 polyclonal antibody followed by 1/10,000 HRP-conjugated goat anti-rabbit IgG F(ab′)2 secondary antibody (Bio-Rad). Protein bands were detected using Supersignal West Femto chemiluminescent substrate. To ensure equivalent sample loading, blots were stripped at 65° C. for 1 hour with Restore PLUS Western Blot Stripping Buffer before labeling with 1/10,000 rabbit anti-actin polyclonal antibody. Unless otherwise stated, all the reagents were purchased from Thermo Scientific.

B1: N405Q: ΔCasp9 (res. 135-416) N405Q, SEQ ID NO: 26 (protein)
chain: GFGDVGALESLRGNADLAYILSMEPCGHCLIINNVNFCRESGLRTRTGSNIDCEKLRRRFSSLHFMVEVKGDLTAKKMVLALLELARQDHGALDCCVVVILSHGCQASHLQFPGAVYGTDGCPVSVEKIVNIFNGTSCPSLGGKPKLFFIQACGGEQKDHGFEVASTSPEDESPGSNPEPDATPFQEGLRTFDQLDAISSLPTPSDIFVSYSTFPGFVSWRDPKSGSWYVETLDDIFEQWAHSEDLQSLLLRVANAVSVKGIYKQMPGCFQFLRKKLFFKTS
With B1 the protein expression level was “darker than the others”.
